Data as given in PubChem BioAssay AID2685 (National Center for Advancing Translational Sciences (NCATS), 2010).
Some of the results follow. The main result of the screen is listed elsewhere. These columns were measured beside it and carry no call. Compounds called inactive in the main read-out are mostly missing here. The note in brackets gives the kind of curve behind each potency; many fits are weak.

Test: qHTS Assay for Lipid Storage Modulators in Drosophila S3 Cells;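 on cell number change: cells counted by Cell Tracker Red CMTPX staining in the red channel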
Settings: BODIPY lipid droplet fluorescence, 18-24 h; for cell number change: measured here: cell count max response, cells fed with added oleic acid
Outline: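 Drosophila S3 cells loaded with oleic acid (400 uM, as added) and compounds at several concentrations; lipid droplets imaged by 488-nm laser-scanning cytometry, 500–530 nm intensity and object ratio to cell channel. Percent activity normalized to 20 uM Triacsin C.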

[1] = measured here: cell number channel AC50, cells fed with added oleic acid
[2] = measured here: lipid fluorescence (Fed channel) AC50, cells fed with added oleic acid

Compound | cell number change | AC50 [1] | AC50 [2]
COc1ccc(Cn2c(-c3ccc(C)cc3)c[n+]3ccccc23)cc1 | -30.8% | 25.9 µM [falling, partial curve, poor fit] | 20.6 µM [falling, single point]
CN1C(=O)N(C)C2C1NC(=O)N2C (configuration not stated) | 6.41% |  | 29.1 µM [rising, single point]
CC(C)(C)c1ccc(OC(=O)c2cccnc2)cc1 | -49.8% | 23.1 µM [falling, partial curve, poor fit] | 16.4 µM [falling, partial curve]
Cc1ccc(-c2nc3ccccc3n3nnnc23)cc1 | 91.6% | 2.06 µM [rising, full curve] | 2.31 µM [rising, full curve]
O=C(CSc1ccc(Cl)cc1)Nc1cc(-c2nc3ncccc3o2)ccc1Cl | -58.9% | 11.6 µM [falling, partial curve] | 18.4 µM [falling, partial curve]
CCCSc1cc(=O)n(-c2ccccc2)nc1C(=O)O | -37.4% |  | 0.116 µM [falling, full curve, poor fit]
O=C(Cc1cccs1)Nc1ccc(NC(=O)c2ccco2)cc1 | -36.9% | 0.13 µM [falling, full curve, poor fit] | 0.58 µM [falling, single point]
Cc1nonc1NC(=O)CSc1nc2ccccc2o1 | 0.952% |  | 29.1 µM [rising, single point]
CN1CCN(S(=O)(=O)c2ccc(SCCOc3ccccc3)nc2)CC1 | -18.3% |  | 
N#CCCN(C(=O)COC(=O)c1ccc2c(c1)NC(=O)CS2)c1ccc2c(c1)OCCO2 | 17.5% | 6.51 µM [falling, single point] | 0.517 µM [falling, partial curve, poor fit]
CCOC(=O)c1c(C)nc2c(c1-c1ccc(OC)cc1)C(=O)CC(C)(C)C2 | 8.66% |  | 6.51 µM [falling, single point]
Cc1cc(Cl)c(S(=O)(=O)Nc2ccc3c(c2)OCO3)cc1OCC(=O)NC1CCCCC1 | 32.6% | 3.66 µM [rising, full curve] | 18.4 µM [rising, partial curve]
CN(C(=O)COC(=O)CNC(=O)C12CC3CC(CC(C3)C1)C2)C1CCS(=O)(=O)C1 (configuration not stated) | -50% | 29.1 µM [falling, single point] | 
O=C(COc1ccc([N+](=O)[O-])cc1)NNC(=O)c1cccs1 | 28% |  | 6.51 µM [falling, single point]
CCC(C)NC(=O)Cc1c(OC)ccc2cc(Br)ccc12 (configuration not stated) | 10.8% |  | 
COc1ccccc1N1CCN(/N=C/C=C/c2ccccc2[N+](=O)[O-])CC1 | -30.7% | 29.1 µM [falling, single point] | 29.1 µM [falling, single point]
COc1ccc(CNc2nc3c(c(=O)n(Cc4ccc(F)cc4)c(=O)n3C)n2C)cc1 | -19.5% |  | 6.51 µM [rising, single point]
CN(C(=O)c1ccco1)c1nc(-c2ccc(F)cc2)cs1 | -4.15% |  | 
COc1cc(NC(=O)c2cccs2)c(C(=O)OCC(=O)c2cc(C)n(-c3ccc(F)cc3)c2C)cc1OC | -7.41% |  | 29.1 µM [rising, single point]

Compound | cell number change | AC50 [1] | AC50 [2]
CC(=O)c1cnc(-c2ccccn2)s1 |  | 0.164 µM [rising, full curve, poor fit] | 
C=CCOc1ccc(Br)cc1CNC(C)(C)CO | -2.55% | 0.13 µM [falling, full curve, poor fit] | 0.82 µM [falling, full curve, poor fit]
CCOC(=O)c1[nH]c2ccc(OCC)cc2c1CCCN1C(=O)c2ccccc2C1=O | 23.9% |  | 0.651 µM [rising, full curve]
CSc1nnc(CCNS(=O)(=O)c2ccc(Br)cc2)n1C | 7.92% |  | 5.8 µM [rising, single point]
CNC[C@H](Cc1ccccc1)NC[C@@H](Cc1cccc2ccccc12)NCCc1ccc(C)cc1 | -18.3% |  | 29.1 µM [falling, single point]
CS(=O)(=O)Nc1ccc(C(=O)Nc2ccc3c(c2)OCCO3)cc1 | 19.2% | 0.651 µM [falling, single point] | 0.651 µM [falling, single point]
CCS(=O)(=O)N1CCN(Cc2nc3ccccc3c(=O)[nH]2)CC1 | 14.6% |  | 4.61 µM [falling, single point]
O=C(CN1C(=O)NC(Cc2ccccc2)C1=O)NC(=O)NC1CCCCC1 (configuration not stated) | -3.06% |  | 0.651 µM [falling, single point]
COc1cccc(NC(=O)CN(C)C(=O)c2cc(-c3ccco3)nc3ccccc23)c1 | 20.6% |  | 1.84 µM [rising, partial curve]
COc1ccccc1C(=O)N=C1SC2CS(=O)(=O)CC2N1c1ccccc1 (configuration not stated) | -5.86% |  | 6.51 µM [rising, partial curve, poor fit]
NC(=O)c1c(NC(=O)c2ccccc2)sc2c1CCc1ccccc1-2 |  | 6.51 µM [rising, single point] | 4.11 µM [rising, partial curve]
CCC1=C(OC(=O)N(CC)CC)N2C(=O)OC(=NCCOC)[C@]2(Cc2ccccc2)[C@H]2C1=CC[C@H]1C(=O)NC(=O)[C@H]12 |  |  | 0.116 µM [rising, full curve, poor fit]
COc1ccc(-c2csc(NC(=O)c3cc(C)oc3C)n2)cc1OC | -32.4% | 11.2 µM [falling, single point] | 
CC(NC(=O)c1cc2sccc2n1C)c1ccc2c(c1)OCCO2 (configuration not stated) | 108% | 29.1 µM [rising, single point] | 
COc1ccc(F)cc1-c1nc(N)nc(N)n1 | 11.3% |  | 
O=C(Cc1nnc(NC(=O)Nc2ccccc2F)s1)NCc1ccccc1 | -24.7% |  | 29.1 µM [falling, single point]
Cc1sc(NC(=O)c2ccccc2)c(C(=O)c2ccccc2)c1C | 22.6% |  | 2.06 µM [rising, partial curve]
O=C(NCc1ccccn1)C(=O)NCc1ccccn1 | 6.38% |  | 0.58 µM [falling, single point]
Cc1ccnc(NC(=O)c2ccc3c(c2)NC(=O)C(C)S3)c1 (configuration not stated) | -7.02% |  | 

Compound | cell number change | AC50 [1] | AC50 [2]
O=C(Nc1ccc(NC(=O)C2CC2)nc1)c1ccccn1 | -11.1% |  | 
CCOc1cc(C(=O)N2CCC(CC3CC(c4ccc(Cl)cc4)=NO3)(C(=O)NCC3CCCCC3)CC2)cc(OCC)c1OCC (configuration not stated) | 20.4% |  | 5.17 µM [falling, full curve]
Cc1ccnc(NS(=O)(=O)c2ccc(Oc3ccccc3)cc2)c1 | -3.75% |  | 
CCc1ccc(C(=O)NNC(=O)C2CCN(c3ncnc4sc(C)c(C)c34)CC2)cc1 | 32.3% | 3.26 µM [rising, full curve, poor fit] | 
Cc1ccc(S(=O)(=O)N2CCOCC2)cc1C(=O)Nc1cccc(C(=O)NC2CC2)c1 | -52.3% | 29.1 µM [falling, single point] | 29.1 µM [falling, single point]
CN(C)C(CNC(=O)c1cc2ccccc2oc1=O)c1ccccc1 (configuration not stated) | 14.1% |  | 1.3 µM [rising, full curve]
CC1CCc2c(sc(NC(=O)c3ccc(Cn4cc(Br)cn4)o3)c2C(N)=O)C1 (configuration not stated) | 107% | 2.91 µM [rising, full curve] | 3.26 µM [rising, full curve]
O=C(N[C@@H]1CCC(=O)N(CC[C@H](Oc2ccccc2)c2ccccc2)CC1)OCc1ccccc1 | -27.5% |  | 
Cc1ccc(OCCn2cnc3cc([N+](=O)[O-])ccc3c2=O)cc1 | 46% | 10.3 µM [rising, partial curve, poor fit] | 
CCOc1ccc2[nH]c3c(NCC(C)C)ncnc3c2c1 | -38.3% | 29.1 µM [falling, single point] | 29.1 µM [falling, single point]
COc1cc(-c2nc(CN3CCCCC3CCNC(C)=O)c(C)o2)ccc1F (configuration not stated) | -7.95% |  | 4.61 µM [falling, single point]
C=CCn1c(=O)/c(=C2/Sc3cc(OC)ccc3N2C)s/c1=C1\C(=O)N(CC)C(=S)N1C | -50% | 20.6 µM [falling, partial curve] | 1.64 µM [falling, partial curve]
Cc1ccc(S(=O)(=O)CCC(=O)OCn2nnc3ccccc3c2=O)cc1 | -8.27% |  | 
COc1nc(-c2ccc(C)cc2)ccc1-c1noc(-c2cccnc2)n1 | 1.7% |  | 6.51 µM [rising, single point]
CCCCN1C(=O)/C(=C2/Sc3ccccc3N2C)S/C1=N\c1ncn[nH]1 | -64.2% | 13 µM [falling, partial curve] | 29.1 µM [falling, partial curve, poor fit]
CCOc1ccc(CNC(=S)N/N=C/c2cccnc2)cc1 | -37.2% | 29.1 µM [falling, single point] | 6.51 µM [rising, single point]
O=C(NCc1ccccc1)c1ccc2c(c1)C(=O)N(Cc1ccncc1)C2=O | 131% | 20.6 µM [rising, single point] | 
CCCCn1c(N)c(N(CC(C)C)C(=O)c2cccc(S(=O)(=O)N3CCN(C)CC3)c2)c(=O)[nH]c1=O | 14% |  | 4.11 µM [falling, partial curve, poor fit]

Random excerpt: two entries already listed
Compound | cell number change | AC50 [1] | AC50 [2]
Cc1ccc(S(=O)(=O)CCC(=O)OCn2nnc3ccccc3c2=O)cc1 | -8.27% |  | 
CN(C)C(CNC(=O)c1cc2ccccc2oc1=O)c1ccccc1 (configuration not stated) | 14.1% |  | 1.3 µM [rising, full curve]
